Experimental data as given in patent US20030162221A1.
Results are given in words; binding and its absence hold for the method and conditions named. Binding seen in cells or lysates may run through a third protein. Some binding calls cover weakened binding; strength is not graded here. For some of these results: Where a sequence is shown, tags or fusion partners need not be part of it.

By UniProt entry, the sequences of proteins in these tests, tags left out. Residues count along the entry.
UniProt P32381: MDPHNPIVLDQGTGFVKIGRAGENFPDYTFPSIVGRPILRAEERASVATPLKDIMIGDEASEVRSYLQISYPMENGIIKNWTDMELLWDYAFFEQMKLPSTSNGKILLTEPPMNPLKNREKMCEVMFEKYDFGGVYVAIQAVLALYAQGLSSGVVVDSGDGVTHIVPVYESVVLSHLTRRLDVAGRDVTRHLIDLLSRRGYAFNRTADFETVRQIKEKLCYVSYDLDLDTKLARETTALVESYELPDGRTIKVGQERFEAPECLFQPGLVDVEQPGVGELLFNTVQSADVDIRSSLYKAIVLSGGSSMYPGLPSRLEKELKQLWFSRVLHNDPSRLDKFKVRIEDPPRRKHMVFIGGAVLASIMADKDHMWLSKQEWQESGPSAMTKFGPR
UniProt P33204: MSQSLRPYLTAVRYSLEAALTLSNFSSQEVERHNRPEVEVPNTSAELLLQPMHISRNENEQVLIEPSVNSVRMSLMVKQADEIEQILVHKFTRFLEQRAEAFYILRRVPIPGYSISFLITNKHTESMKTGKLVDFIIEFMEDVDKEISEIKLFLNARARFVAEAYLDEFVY
UniProt P53731: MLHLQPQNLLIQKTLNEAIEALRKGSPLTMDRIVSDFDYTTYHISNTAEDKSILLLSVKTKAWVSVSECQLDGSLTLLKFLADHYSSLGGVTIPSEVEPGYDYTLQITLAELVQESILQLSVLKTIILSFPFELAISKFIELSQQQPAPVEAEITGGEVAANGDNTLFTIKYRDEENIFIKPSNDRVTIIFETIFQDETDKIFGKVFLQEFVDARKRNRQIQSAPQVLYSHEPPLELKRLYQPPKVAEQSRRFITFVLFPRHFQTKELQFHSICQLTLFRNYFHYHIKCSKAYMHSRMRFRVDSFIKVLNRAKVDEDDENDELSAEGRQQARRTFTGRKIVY
UniProt P47117: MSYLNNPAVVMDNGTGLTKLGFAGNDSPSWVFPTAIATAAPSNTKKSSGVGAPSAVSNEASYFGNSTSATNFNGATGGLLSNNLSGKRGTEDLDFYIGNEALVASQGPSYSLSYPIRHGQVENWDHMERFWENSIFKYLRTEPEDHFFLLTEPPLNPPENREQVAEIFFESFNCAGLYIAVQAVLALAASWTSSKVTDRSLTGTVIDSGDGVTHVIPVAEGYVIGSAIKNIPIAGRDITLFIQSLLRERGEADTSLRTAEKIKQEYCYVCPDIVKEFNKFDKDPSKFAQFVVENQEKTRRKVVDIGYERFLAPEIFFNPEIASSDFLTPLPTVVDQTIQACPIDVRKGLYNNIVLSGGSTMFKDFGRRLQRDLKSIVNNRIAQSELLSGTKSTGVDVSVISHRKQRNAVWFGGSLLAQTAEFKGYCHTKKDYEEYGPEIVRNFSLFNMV
UniProt Q05933: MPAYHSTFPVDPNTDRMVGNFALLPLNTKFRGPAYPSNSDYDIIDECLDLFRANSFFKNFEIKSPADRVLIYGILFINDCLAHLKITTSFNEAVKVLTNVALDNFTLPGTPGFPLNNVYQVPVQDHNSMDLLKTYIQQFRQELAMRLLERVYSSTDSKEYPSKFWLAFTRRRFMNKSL
UniProt P40518: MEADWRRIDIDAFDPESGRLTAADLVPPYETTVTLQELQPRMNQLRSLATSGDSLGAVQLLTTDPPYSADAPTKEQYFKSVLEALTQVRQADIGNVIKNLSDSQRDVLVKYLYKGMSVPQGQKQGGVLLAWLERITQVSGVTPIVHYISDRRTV
UniProt P38328: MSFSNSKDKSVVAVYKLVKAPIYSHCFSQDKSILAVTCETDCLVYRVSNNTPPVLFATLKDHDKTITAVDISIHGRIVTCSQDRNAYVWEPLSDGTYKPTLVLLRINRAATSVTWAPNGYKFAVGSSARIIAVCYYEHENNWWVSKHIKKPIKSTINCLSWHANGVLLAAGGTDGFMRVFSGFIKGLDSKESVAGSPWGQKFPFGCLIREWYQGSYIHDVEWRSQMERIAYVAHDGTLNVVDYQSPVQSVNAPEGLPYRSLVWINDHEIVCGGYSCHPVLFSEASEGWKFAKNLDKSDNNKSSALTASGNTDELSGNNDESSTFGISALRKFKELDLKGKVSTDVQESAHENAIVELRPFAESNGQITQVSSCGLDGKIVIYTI
UniProt P32447: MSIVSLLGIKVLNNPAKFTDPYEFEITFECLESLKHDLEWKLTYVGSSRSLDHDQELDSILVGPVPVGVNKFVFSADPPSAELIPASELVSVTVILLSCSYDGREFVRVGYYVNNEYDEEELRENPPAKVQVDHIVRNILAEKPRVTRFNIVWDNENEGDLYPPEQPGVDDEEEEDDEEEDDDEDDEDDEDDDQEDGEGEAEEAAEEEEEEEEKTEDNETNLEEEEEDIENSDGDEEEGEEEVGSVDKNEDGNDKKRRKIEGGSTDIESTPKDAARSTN
UniProt P00546, residues 2-298: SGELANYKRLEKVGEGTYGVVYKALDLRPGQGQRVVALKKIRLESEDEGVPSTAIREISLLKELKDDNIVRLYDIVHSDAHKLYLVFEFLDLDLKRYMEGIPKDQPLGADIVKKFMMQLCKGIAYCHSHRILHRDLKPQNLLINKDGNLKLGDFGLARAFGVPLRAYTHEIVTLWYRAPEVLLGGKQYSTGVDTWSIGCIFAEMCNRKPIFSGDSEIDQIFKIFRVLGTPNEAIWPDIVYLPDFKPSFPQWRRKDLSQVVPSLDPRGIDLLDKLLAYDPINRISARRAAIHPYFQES
UniProt P12954: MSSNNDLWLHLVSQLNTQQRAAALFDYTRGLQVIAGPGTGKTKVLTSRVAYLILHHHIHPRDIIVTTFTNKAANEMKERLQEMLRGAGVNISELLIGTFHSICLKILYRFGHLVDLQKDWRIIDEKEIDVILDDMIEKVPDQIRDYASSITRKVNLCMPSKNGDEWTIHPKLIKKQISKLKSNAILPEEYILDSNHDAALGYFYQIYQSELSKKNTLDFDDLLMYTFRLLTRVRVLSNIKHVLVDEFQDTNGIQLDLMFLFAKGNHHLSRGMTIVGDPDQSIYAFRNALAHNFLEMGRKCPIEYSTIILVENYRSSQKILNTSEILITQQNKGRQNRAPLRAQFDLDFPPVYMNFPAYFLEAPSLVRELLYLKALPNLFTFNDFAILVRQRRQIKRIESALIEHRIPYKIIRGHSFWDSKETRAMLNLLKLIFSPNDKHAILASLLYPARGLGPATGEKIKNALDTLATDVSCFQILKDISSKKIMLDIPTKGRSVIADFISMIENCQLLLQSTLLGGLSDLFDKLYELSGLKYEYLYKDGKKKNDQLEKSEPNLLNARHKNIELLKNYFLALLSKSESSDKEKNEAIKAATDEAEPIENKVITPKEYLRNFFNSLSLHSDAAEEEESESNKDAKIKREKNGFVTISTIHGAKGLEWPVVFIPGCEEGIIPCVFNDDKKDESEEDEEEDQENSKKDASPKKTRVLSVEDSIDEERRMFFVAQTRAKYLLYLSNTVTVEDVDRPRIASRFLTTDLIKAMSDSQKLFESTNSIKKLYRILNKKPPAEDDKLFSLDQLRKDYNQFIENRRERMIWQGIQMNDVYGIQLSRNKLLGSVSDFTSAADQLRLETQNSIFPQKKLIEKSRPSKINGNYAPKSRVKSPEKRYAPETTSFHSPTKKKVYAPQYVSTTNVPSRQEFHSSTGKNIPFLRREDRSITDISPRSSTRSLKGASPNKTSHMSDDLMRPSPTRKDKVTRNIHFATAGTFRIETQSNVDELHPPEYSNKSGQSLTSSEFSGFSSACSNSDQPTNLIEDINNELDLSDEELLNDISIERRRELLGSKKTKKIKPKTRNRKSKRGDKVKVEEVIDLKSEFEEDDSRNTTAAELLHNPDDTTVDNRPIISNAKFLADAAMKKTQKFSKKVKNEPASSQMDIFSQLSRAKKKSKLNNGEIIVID
UniProt P22216: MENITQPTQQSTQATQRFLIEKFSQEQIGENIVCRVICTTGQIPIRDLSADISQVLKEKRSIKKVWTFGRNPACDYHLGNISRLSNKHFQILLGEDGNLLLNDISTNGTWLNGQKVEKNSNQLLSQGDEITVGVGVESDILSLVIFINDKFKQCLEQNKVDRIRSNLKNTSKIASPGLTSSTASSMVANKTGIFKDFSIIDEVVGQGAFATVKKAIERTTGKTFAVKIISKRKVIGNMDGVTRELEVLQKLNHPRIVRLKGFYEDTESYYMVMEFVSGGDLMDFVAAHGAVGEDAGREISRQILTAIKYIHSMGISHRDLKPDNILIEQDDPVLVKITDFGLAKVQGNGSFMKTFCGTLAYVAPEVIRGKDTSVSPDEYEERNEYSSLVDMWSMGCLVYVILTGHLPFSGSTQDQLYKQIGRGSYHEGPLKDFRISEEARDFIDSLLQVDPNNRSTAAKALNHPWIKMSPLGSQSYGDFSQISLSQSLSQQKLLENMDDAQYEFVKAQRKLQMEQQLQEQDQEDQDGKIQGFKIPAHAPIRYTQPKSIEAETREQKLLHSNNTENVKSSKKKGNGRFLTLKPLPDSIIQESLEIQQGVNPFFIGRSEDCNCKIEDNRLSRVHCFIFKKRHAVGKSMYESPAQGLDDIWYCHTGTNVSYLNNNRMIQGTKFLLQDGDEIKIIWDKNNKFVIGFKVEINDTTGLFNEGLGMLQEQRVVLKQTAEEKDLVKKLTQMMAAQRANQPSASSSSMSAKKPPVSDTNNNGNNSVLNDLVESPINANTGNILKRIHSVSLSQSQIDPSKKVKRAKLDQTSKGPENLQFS
UniProt P39940: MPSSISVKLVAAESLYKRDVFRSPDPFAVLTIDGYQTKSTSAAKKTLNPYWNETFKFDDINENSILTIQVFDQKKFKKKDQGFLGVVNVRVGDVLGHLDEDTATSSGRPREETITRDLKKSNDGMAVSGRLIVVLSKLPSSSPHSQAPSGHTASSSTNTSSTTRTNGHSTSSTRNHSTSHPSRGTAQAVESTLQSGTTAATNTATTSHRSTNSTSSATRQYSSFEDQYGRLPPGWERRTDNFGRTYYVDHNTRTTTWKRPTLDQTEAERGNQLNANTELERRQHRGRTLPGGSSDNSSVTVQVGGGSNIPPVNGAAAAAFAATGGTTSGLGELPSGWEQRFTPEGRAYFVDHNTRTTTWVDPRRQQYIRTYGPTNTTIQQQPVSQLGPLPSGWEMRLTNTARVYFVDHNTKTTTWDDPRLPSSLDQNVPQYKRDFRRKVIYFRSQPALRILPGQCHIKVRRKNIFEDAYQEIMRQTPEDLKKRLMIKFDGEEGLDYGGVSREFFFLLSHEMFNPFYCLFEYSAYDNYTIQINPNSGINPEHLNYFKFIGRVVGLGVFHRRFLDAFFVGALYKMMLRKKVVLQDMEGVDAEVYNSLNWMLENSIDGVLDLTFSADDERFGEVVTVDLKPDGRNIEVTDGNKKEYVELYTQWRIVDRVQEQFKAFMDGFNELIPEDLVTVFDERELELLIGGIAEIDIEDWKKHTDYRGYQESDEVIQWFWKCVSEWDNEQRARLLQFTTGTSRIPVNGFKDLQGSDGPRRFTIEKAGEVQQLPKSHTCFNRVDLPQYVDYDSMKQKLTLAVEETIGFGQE

Assays:
[1] = molecular target: Arp2 (Saccharomyces cerevisiae) (UniProt P32381); experiment: anti-FLAG co-IP, LC-MS/MS
[2] = molecular target: Arc19 (Saccharomyces cerevisiae) (UniProt P33204); experiment: anti-FLAG co-IP, LC-MS/MS
[3] = molecular target: Arc35 (Saccharomyces cerevisiae) (UniProt P53731); experiment: anti-FLAG co-IP, LC-MS/MS
[4] = molecular target: Arp3 (Saccharomyces cerevisiae) (UniProt P47117); experiment: anti-FLAG co-IP, LC-MS/MS
[5] = molecular target: Arc18 (Saccharomyces cerevisiae) (UniProt Q05933); experiment: anti-FLAG co-IP, LC-MS/MS
[6] = molecular target: Arc15 (Saccharomyces cerevisiae) (UniProt P40518); experiment: anti-FLAG co-IP, LC-MS/MS
[7] = molecular target: Arc40 (Saccharomyces cerevisiae) (UniProt P38328); experiment: anti-FLAG co-IP, LC-MS/MS
[8] = molecular target: T1, Cln2 (Saccharomyces cerevisiae) (UniProt P20438); experiment: anti-FLAG co-IP, LC-MS/MS
T1 sequence (looked up): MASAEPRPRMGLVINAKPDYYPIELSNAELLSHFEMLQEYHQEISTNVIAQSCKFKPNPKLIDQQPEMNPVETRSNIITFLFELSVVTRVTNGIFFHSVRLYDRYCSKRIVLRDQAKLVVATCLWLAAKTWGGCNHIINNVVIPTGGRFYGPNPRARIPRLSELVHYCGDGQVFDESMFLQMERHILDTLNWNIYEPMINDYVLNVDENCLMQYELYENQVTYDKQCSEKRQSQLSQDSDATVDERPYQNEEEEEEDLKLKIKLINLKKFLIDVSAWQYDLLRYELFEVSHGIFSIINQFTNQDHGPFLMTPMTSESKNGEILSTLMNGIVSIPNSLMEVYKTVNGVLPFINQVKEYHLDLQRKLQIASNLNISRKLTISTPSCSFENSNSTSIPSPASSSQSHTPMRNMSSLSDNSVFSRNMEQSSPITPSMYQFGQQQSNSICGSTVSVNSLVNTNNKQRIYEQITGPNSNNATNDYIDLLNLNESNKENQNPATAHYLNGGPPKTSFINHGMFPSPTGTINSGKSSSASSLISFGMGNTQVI

[9] = molecular target: T2, Clb5 (Saccharomyces cerevisiae) (UniProt P30283); experiment: anti-FLAG co-IP, LC-MS/MS
T2 sequence (looked up): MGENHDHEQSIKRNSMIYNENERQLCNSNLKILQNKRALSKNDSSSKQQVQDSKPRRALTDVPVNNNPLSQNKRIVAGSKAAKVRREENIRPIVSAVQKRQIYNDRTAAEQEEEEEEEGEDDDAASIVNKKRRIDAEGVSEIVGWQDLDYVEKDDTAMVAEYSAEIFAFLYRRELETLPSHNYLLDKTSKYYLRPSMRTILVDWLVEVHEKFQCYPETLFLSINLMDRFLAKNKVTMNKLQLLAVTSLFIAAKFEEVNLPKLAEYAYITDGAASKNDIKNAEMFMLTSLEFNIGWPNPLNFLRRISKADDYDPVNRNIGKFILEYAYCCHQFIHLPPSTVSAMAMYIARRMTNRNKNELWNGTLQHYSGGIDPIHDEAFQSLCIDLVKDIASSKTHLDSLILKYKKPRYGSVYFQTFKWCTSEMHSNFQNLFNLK

[10] = molecular target: T3, Cln1 (Saccharomyces cerevisiae) (UniProt P20437); experiment: anti-FLAG co-IP, LC-MS/MS
T3 sequence (looked up): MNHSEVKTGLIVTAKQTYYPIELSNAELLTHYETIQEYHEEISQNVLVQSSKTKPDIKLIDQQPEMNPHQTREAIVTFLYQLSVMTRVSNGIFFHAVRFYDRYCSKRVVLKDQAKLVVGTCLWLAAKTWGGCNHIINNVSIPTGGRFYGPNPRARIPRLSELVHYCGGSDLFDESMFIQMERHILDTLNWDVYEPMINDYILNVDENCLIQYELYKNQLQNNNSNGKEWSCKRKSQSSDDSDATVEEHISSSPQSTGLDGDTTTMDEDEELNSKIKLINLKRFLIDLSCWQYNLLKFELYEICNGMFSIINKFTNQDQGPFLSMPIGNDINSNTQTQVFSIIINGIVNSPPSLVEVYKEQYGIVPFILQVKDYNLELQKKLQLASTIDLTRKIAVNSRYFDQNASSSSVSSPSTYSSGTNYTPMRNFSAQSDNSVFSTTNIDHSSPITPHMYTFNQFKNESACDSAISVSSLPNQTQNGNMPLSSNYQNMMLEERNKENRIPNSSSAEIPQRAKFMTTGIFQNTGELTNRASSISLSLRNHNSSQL

[11] = molecular target: T4, Clb2 (Saccharomyces cerevisiae) (UniProt P24869); experiment: anti-FLAG co-IP, LC-MS/MS
T4 sequence (looked up): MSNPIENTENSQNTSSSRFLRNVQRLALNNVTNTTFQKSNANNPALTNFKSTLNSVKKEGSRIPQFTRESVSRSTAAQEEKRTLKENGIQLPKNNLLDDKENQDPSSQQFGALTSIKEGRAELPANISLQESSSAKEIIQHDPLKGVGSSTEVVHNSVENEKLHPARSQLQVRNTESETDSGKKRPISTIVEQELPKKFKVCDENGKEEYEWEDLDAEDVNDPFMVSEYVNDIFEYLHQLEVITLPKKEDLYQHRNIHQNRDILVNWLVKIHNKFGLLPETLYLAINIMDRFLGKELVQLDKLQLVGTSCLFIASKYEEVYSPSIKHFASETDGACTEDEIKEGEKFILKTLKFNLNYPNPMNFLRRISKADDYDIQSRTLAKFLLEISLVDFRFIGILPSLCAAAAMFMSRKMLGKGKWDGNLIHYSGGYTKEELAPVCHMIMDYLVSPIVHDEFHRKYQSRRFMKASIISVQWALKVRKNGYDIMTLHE

[12] = molecular target: T5, Clb3 (Saccharomyces cerevisiae) (UniProt P24870); experiment: anti-FLAG co-IP, LC-MS/MS
T5 sequence (looked up): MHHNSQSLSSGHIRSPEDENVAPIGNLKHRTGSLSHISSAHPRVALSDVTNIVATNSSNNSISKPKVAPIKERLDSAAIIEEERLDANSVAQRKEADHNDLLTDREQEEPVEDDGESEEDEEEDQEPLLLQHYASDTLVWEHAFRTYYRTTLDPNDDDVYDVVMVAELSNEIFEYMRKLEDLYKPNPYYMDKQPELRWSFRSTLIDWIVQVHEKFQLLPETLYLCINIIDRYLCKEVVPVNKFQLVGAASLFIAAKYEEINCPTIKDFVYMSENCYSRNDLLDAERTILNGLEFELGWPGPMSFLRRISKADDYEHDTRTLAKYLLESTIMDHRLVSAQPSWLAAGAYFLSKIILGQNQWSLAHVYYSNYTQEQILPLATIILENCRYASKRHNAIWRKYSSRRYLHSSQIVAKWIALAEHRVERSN

[13] = molecular target: T6, Cks1 (Saccharomyces cerevisiae) (UniProt P20486); experiment: anti-FLAG co-IP, LC-MS/MS
T6 sequence (looked up): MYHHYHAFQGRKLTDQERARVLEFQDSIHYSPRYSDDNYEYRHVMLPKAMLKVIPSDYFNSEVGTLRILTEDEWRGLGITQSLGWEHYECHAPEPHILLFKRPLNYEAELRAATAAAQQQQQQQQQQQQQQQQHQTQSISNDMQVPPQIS

[14] = molecular target: T7, Dun1 (Saccharomyces cerevisiae) (UniProt P39009); experiment: anti-FLAG co-IP, LC-MS/MS; Dun1 was the prey by Table 2
T7 sequence (looked up): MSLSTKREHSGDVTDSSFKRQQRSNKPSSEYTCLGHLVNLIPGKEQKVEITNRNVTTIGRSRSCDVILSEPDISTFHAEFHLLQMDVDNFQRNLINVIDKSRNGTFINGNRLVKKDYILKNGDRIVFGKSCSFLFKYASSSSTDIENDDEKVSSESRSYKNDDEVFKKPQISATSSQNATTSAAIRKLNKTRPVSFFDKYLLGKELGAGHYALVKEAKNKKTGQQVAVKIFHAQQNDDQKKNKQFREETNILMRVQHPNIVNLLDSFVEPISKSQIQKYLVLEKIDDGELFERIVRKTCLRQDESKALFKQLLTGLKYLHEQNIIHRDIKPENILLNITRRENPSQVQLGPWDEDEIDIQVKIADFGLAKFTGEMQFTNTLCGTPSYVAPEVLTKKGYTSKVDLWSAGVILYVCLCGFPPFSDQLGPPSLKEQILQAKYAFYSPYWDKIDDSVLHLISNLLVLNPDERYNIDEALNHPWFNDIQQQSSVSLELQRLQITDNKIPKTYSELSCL

[15] = molecular target: T7, Dun1 (Saccharomyces cerevisiae); experiment: anti-FLAG co-IP, LC-MS/MS
[16] = molecular target: T8, Swi4 (Saccharomyces cerevisiae) (UniProt P25302); experiment: anti-FLAG co-IP, LC-MS/MS; SWI4 is a prey of RAD53 in Table 2
T8 sequence (looked up): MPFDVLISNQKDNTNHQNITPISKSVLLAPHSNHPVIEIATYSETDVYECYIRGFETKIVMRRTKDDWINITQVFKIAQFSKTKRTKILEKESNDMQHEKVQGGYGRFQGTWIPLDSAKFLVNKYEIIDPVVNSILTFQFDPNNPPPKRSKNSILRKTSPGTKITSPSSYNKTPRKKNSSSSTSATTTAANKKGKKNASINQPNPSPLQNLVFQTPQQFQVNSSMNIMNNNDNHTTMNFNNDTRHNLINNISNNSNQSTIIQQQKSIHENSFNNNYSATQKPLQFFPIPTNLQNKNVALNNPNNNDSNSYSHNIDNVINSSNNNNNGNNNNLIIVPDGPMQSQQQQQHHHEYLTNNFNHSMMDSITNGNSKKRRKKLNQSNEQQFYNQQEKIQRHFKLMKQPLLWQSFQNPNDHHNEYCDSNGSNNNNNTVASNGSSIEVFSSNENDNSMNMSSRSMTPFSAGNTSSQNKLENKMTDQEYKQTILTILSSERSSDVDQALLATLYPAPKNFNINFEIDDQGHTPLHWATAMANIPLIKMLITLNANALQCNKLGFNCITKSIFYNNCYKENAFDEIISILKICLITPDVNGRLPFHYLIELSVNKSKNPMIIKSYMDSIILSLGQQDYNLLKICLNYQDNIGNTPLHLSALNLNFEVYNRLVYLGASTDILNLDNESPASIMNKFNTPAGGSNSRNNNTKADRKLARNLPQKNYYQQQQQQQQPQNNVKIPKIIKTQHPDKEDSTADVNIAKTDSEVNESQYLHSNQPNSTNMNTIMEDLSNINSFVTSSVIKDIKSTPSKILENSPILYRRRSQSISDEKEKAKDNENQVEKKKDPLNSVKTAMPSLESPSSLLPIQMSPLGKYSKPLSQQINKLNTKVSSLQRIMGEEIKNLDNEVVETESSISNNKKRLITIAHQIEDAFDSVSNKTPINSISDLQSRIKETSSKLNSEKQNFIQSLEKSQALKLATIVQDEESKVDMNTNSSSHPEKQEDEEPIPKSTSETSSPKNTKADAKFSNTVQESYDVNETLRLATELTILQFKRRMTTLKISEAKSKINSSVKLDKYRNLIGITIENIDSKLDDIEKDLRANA

[17] = molecular target: T8, Swi4 (Saccharomyces cerevisiae); experiment: anti-FLAG co-IP, LC-MS/MS
[18] = molecular target: T9, Ydr071c (Saccharomyces cerevisiae) (UniProt Q12447); experiment: anti-FLAG co-IP, LC-MS/MS
T9 sequence (looked up): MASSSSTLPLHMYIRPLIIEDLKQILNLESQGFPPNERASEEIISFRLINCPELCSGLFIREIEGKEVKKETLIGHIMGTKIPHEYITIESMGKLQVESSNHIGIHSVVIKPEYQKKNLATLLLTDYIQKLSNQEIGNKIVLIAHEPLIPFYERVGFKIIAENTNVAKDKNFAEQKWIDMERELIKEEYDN

[19] = molecular target: T10, Ptc2 (Saccharomyces cerevisiae) (UniProt P39966); experiment: anti-FLAG co-IP, LC-MS/MS
T10 sequence (looked up): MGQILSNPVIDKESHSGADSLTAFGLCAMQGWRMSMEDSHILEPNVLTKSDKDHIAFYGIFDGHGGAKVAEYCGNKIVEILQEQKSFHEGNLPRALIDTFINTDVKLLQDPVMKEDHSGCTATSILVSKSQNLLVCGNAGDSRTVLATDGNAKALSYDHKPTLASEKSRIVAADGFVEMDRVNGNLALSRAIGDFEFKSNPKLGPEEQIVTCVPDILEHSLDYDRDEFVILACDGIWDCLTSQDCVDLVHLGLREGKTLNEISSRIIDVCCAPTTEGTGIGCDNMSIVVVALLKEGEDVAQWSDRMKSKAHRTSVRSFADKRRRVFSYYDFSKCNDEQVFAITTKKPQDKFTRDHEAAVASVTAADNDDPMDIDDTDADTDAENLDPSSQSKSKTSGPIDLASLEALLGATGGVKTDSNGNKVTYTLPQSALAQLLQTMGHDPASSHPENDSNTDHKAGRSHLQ

[20] = molecular target: Asf1 (Saccharomyces cerevisiae) (UniProt P32447); experiment: anti-FLAG co-IP, LC-MS/MS

Measured: binding

Arc40 (from UniProt P38328 1-384)
binds: [1] | [2] | [3] | [4] | [5]

Arp2 (from UniProt P32381 1-391)
binds: [2] | [3] | [4] | [5] | [6] | [7]

Cdc28 (from UniProt P00546 2-298)
binds: [8] | [9] | [10] | [11] | [12] | [13]

Hpr5 (Srs2) (from UniProt P12954 1-1174)
binds: [14] | [15]

Rad53 (from UniProt P22216 1-821)
binds: [14] | [16] | [17] | [15] | [18] | [19] | [20]

Rsp5 (from UniProt P39940 1-809)
binds: [14] | [15]
